Experimental findings from PubChem BioAssay AID330 (DTP/NCI, 2004) are described below.

The list is a part of this screen's results and no random one: it is rich in T/C values a quarter to a half above the control, in often repeated tests (any T/C) and in doses without a T/C. Other doses and runs of a compound stand elsewhere. T/C gives the treated animals as a percentage of the vehicle group. Some doses have a count of surviving animals in place of a T/C: the source holds a T/C of zero for them, seemingly a mark for toxic or unscored doses. Some survivor counts are full or nearly so, which does not show that the dose was tolerated: survival well below the control is almost never listed, so the zero probably covers shortened survival too. Counts of survivors are from the toxicity check (mostly the fifth day) where no day follows; animals may have died later. Schedule codes are those of the source, taken here to give the interval after Q, in days (D) or hours (H), and the number of doses after X. Some doses were run more than once; their values stand side by side, smallest first. Counts like (3×) say how often a value occurs here. Some molecules as drawn cover several salts, stereoisomers or complexes of the source; a dose is that of the sample tested. Where survival is the endpoint, this PubChem deposit counts one and a half times the control or more as active, and values a quarter to a half above the control carry no call in these data; other NCI protocols may use other cut-offs.

This experiment deals with P388 leukemia ip, CD2F1 mice, survival T/C. The experiment in a line: NCI In Vivo Anticancer Drug Screen. Data for tumor model P388 Leukemia (intraperitoneal) in CD2F1 (CDF1) mice. Conditions: T/C endpoint: median survival time, higher T/C = longer survival.
[1] abbreviates: dose: 200.0 mg/kg/injection, schedule: Q01DX005 (ip), vehicle: saline with Tween-80.
Where [2] appears, read: dose: 400.0 mg/kg/injection, schedule: Q04DX003 (ip), vehicle: Klucel (hydroxypropylcellulose) (HPC).
Setting [3] is: dose: 120.0 mg/kg/injection, schedule: Q01DX005 (ip), vehicle: Klucel (hydroxypropylcellulose) (HPC).
Setting [4] is: dose: 60.0 mg/kg/injection, schedule: Q01DX005 (ip), vehicle: Klucel (hydroxypropylcellulose) (HPC).
[5] abbreviates: dose: 200.0 mg/kg/injection, schedule: Q01DX009 (ip), vehicle: Klucel (hydroxypropylcellulose) (HPC).
Where [6] appears, read: dose: 50.0 mg/kg/injection, schedule: Q01DX009 (ip), vehicle: Klucel (hydroxypropylcellulose) (HPC).

Turning to `COc1ccc(C[n+]2ccc3ccccc3c2C#N)cc1OC`, the survivor count (dose: 50.0 mg/kg/injection, schedule: Q04DX002 (ip), vehicle: saline) is 1 of 5; the survivor count (dose: 100.0 mg/kg/injection, schedule: Q04DX002 (ip), vehicle: saline) is on record as 0 of 5; the survivor count (dose: 200.0 mg/kg/injection, schedule: Q04DX002 (ip), vehicle: saline) is given as 0 of 5; the survivor count (dose: 400.0 mg/kg/injection, schedule: Q04DX002 (ip), vehicle: saline) is 0 of 5.
With `CCOC(=O)C(Cc1ccc(N(CCCl)CCCl)cc1)NC(=O)C(Cc1ccc(N)cc1)NC(C)=O` (centres undefined), the survivor count is, setting by setting: (dose: 12.5 mg/kg/injection, schedule: Q01DX005 (ip), vehicle: saline with Tween-80) 6 of 6; (dose: 25.0 mg/kg/injection, schedule: Q01DX005 (ip), vehicle: saline with Tween-80) 6 of 6; (dose: 50.0 mg/kg/injection, schedule: Q01DX005 (ip), vehicle: saline with Tween-80) 6 of 6; (dose: 100.0 mg/kg/injection, schedule: Q01DX005 (ip), vehicle: saline with Tween-80) 6 of 6; under setting [1], 6 of 6. The T/C under setting [1] was 135 % of control.
For `CCOP(O)(=S)OCC.[Fe]`, the T/C (dose: 50.0 mg/kg/injection, schedule: Q01DX001 (ip), vehicle: saline with Tween-80) is 136 % of control. Further, the survivor count reads like this: (dose: 100.0 mg/kg/injection, schedule: Q01DX001 (ip), vehicle: saline with Tween-80) 6 of 6; (dose: 200.0 mg/kg/injection, schedule: Q01DX001 (ip), vehicle: saline with Tween-80) 6 of 6; (dose: 400.0 mg/kg/injection, schedule: Q01DX001 (ip), vehicle: saline with Tween-80) 6 of 6.
Consider `CC1=CC(=O)C(O)C2(C)C1CC1OC(=O)C(OC(=O)/C=C(\C)C(C)C)C3C(C)C(O)C4(O)OCC13C42` (centres undefined), for which, for the setting “dose: 1.0 mg/kg/injection, schedule: Q01DX005 (ip), vehicle: saline + alcohol”, the T/C is 138 % of control. Besides, the survivor count was 1 of 6 and 3 of 6 (dose: 2.0 mg/kg/injection, schedule: Q01DX005 (ip), vehicle: saline + alcohol); 0 of 6 (dose: 4.0 mg/kg/injection, schedule: Q01DX005 (ip), vehicle: saline + alcohol); 0 of 6 (dose: 8.0 mg/kg/injection, schedule: Q01DX005 (ip), vehicle: saline + alcohol).
For the molecule `c1cc(Nc2ccc(Nc3ccc(CN4CCCCC4)cc3)cc2)ccc1CN1CCCCC1`, the survivor count is 2 of 6 (dose: 200.0 mg/kg/injection, schedule: Q01DX009 (ip), vehicle: saline + Tween-80 + alcohol) and 0 of 6 (dose: 400.0 mg/kg/injection, schedule: Q01DX009 (ip), vehicle: saline + Tween-80 + alcohol).
On to `C[C@@H]1C[C@@]2(C)[C@@H](CC[C@@H]3[C@@H]2CC[C@]2(C)[C@@H](O)CC[C@@H]32)CC1=O`, for which the survivor count under setting [2] is given as 2 of 6.
Turning to `OCC1OC(n2ccc3c(NO)ncnc32)C(O)C1O` (centres undefined), the T/C by setting is: (dose: 0.46 mg/kg/injection, schedule: Q01DX005 (ip), vehicle: Klucel (hydroxypropylcellulose) (HPC)) 127 % of control; (dose: 0.93 mg/kg/injection, schedule: Q01DX005 (ip), vehicle: Klucel (hydroxypropylcellulose) (HPC)) 126 and 134 % of control; (dose: 1.87 mg/kg/injection, schedule: Q01DX005 (ip), vehicle: Klucel (hydroxypropylcellulose) (HPC)) 126 and 137 % of control. Also, the survivor count by setting is: (dose: 3.75 mg/kg/injection, schedule: Q01DX005 (ip), vehicle: Klucel (hydroxypropylcellulose) (HPC)) 5 of 6 and 6 of 6 (2×); (dose: 7.5 mg/kg/injection, schedule: Q01DX005 (ip), vehicle: Klucel (hydroxypropylcellulose) (HPC)) 3 of 6; (dose: 15.0 mg/kg/injection, schedule: Q01DX005 (ip), vehicle: Klucel (hydroxypropylcellulose) (HPC)) 0 of 6; (dose: 30.0 mg/kg/injection, schedule: Q01DX005 (ip), vehicle: Klucel (hydroxypropylcellulose) (HPC)) 0 of 6.
For `O=[n+]1ccn([O-])c2ccccc21.[Mn].[O-][Cl+3]([O-])([O-])O`, under “dose: 200.0 mg/kg/injection, schedule: Q04DX003 (ip), vehicle: saline with Tween-80”, the T/C is 134 % of control. For the same molecule, the survivor count (dose: 400.0 mg/kg/injection, schedule: Q04DX003 (ip), vehicle: saline with Tween-80) was 0 of 6.
With `CCOc1ccc(/C=N/NC(=O)c2ccccc2NC(=O)c2ccccc2Cl)cc1OC`, the survivor count under setting [3] is 6 of 6.
Take `Cc1cc(=O)c2c(C)nn(-c3ccccc3)c2[nH]1`: the survivor count is, setting by setting: under setting [4], 6 of 6; under setting [3], 6 of 6.
With `COC(=O)C12C(=O)C(C(=O)OC)(C(c3ccccc3)=C1c1ccccc1)C1OC(=O)OC12` (centres undefined), the survivor count (dose: 200.0 mg/kg/injection, schedule: Q01DX009 (ip), vehicle: saline with Tween-80) is given as 5 of 6.
In the case of `COC1OC(COC(=O)c2ccccc2)C(=O)C(OC(=O)c2ccccc2)C1N(O)c1ccccc1` (centres undefined), the survivor count is reported as 6 of 6 under setting [4]; 6 of 6 under setting [3]; 6 of 6 (dose: 240.0 mg/kg/injection, schedule: Q01DX005 (ip), vehicle: Klucel (hydroxypropylcellulose) (HPC)).
Regarding `CC(=O)c1ccc2c(c1)N(CCCN(C)C)c1ccccc1S2`, the survivor count reads like this: (dose: 12.5 mg/kg/injection, schedule: Q01DX009 (ip), vehicle: saline) 3 of 6; (dose: 25.0 mg/kg/injection, schedule: Q01DX009 (ip), vehicle: saline) 3 of 6; (dose: 50.0 mg/kg/injection, schedule: Q01DX009 (ip), vehicle: saline) 3 of 6; (dose: 200.0 mg/kg/injection, schedule: Q01DX009 (ip), vehicle: saline) 1 of 6.
For the molecule `COC1OC(C)C(=O)C2OC12` (centres undefined), the survivor count under setting [5] is 1 of 6.
Regarding `CC(C)(C)C(=O)C1C(=O)c2ccccc2C1=O`, the survivor count was 6 of 6 (dose: 6.25 mg/kg/injection, schedule: Q04DX003 (ip), vehicle: Klucel (hydroxypropylcellulose) (HPC)); 6 of 6 (dose: 12.5 mg/kg/injection, schedule: Q04DX003 (ip), vehicle: Klucel (hydroxypropylcellulose) (HPC)); 6 of 6 (dose: 25.0 mg/kg/injection, schedule: Q04DX003 (ip), vehicle: Klucel (hydroxypropylcellulose) (HPC)); 6 of 6 (dose: 50.0 mg/kg/injection, schedule: Q04DX003 (ip), vehicle: Klucel (hydroxypropylcellulose) (HPC)); 0 of 6 (dose: 100.0 mg/kg/injection, schedule: Q04DX003 (ip), vehicle: Klucel (hydroxypropylcellulose) (HPC)); 0 of 6 (dose: 200.0 mg/kg/injection, schedule: Q04DX003 (ip), vehicle: Klucel (hydroxypropylcellulose) (HPC)). Besides, under setting [2], the survivor count is on record as 0 of 6.
In the case of `CN(C(=S)S(=O)(=O)C12CC3CC(CC(C3)C1)C2)c1ccccc1`, the T/C (dose: 12.5 mg/kg/injection, schedule: Q01DX009 (ip), vehicle: Klucel (hydroxypropylcellulose) (HPC)) is 127 % of control; the T/C (dose: 25.0 mg/kg/injection, schedule: Q01DX009 (ip), vehicle: Klucel (hydroxypropylcellulose) (HPC)) is 128 % of control (2×); the T/C under setting [6] is 141 % of control. Also, the survivor count by setting is: under setting [6], 6 of 6; (dose: 100.0 mg/kg/injection, schedule: Q01DX009 (ip), vehicle: Klucel (hydroxypropylcellulose) (HPC)) 0 of 6; under setting [5], 0 of 6.
Take `O=C1C(=O)c2ncccc2-c2ncccc21`: the survivor count reads like this: (dose: 30.0 mg/kg/injection, schedule: Q01DX005 (ip), vehicle: saline with Tween-80) 4 of 6; (dose: 60.0 mg/kg/injection, schedule: Q01DX005 (ip), vehicle: saline with Tween-80) 0 of 6; (dose: 120.0 mg/kg/injection, schedule: Q01DX005 (ip), vehicle: saline with Tween-80) 0 of 6; (dose: 240.0 mg/kg/injection, schedule: Q01DX005 (ip), vehicle: saline with Tween-80) 0 of 6.
